# In article PMC2614481:
# Sequences of proteins named here, by UniProt entry; tags and fusion partners are left off.
# UniProt Q9HFE8: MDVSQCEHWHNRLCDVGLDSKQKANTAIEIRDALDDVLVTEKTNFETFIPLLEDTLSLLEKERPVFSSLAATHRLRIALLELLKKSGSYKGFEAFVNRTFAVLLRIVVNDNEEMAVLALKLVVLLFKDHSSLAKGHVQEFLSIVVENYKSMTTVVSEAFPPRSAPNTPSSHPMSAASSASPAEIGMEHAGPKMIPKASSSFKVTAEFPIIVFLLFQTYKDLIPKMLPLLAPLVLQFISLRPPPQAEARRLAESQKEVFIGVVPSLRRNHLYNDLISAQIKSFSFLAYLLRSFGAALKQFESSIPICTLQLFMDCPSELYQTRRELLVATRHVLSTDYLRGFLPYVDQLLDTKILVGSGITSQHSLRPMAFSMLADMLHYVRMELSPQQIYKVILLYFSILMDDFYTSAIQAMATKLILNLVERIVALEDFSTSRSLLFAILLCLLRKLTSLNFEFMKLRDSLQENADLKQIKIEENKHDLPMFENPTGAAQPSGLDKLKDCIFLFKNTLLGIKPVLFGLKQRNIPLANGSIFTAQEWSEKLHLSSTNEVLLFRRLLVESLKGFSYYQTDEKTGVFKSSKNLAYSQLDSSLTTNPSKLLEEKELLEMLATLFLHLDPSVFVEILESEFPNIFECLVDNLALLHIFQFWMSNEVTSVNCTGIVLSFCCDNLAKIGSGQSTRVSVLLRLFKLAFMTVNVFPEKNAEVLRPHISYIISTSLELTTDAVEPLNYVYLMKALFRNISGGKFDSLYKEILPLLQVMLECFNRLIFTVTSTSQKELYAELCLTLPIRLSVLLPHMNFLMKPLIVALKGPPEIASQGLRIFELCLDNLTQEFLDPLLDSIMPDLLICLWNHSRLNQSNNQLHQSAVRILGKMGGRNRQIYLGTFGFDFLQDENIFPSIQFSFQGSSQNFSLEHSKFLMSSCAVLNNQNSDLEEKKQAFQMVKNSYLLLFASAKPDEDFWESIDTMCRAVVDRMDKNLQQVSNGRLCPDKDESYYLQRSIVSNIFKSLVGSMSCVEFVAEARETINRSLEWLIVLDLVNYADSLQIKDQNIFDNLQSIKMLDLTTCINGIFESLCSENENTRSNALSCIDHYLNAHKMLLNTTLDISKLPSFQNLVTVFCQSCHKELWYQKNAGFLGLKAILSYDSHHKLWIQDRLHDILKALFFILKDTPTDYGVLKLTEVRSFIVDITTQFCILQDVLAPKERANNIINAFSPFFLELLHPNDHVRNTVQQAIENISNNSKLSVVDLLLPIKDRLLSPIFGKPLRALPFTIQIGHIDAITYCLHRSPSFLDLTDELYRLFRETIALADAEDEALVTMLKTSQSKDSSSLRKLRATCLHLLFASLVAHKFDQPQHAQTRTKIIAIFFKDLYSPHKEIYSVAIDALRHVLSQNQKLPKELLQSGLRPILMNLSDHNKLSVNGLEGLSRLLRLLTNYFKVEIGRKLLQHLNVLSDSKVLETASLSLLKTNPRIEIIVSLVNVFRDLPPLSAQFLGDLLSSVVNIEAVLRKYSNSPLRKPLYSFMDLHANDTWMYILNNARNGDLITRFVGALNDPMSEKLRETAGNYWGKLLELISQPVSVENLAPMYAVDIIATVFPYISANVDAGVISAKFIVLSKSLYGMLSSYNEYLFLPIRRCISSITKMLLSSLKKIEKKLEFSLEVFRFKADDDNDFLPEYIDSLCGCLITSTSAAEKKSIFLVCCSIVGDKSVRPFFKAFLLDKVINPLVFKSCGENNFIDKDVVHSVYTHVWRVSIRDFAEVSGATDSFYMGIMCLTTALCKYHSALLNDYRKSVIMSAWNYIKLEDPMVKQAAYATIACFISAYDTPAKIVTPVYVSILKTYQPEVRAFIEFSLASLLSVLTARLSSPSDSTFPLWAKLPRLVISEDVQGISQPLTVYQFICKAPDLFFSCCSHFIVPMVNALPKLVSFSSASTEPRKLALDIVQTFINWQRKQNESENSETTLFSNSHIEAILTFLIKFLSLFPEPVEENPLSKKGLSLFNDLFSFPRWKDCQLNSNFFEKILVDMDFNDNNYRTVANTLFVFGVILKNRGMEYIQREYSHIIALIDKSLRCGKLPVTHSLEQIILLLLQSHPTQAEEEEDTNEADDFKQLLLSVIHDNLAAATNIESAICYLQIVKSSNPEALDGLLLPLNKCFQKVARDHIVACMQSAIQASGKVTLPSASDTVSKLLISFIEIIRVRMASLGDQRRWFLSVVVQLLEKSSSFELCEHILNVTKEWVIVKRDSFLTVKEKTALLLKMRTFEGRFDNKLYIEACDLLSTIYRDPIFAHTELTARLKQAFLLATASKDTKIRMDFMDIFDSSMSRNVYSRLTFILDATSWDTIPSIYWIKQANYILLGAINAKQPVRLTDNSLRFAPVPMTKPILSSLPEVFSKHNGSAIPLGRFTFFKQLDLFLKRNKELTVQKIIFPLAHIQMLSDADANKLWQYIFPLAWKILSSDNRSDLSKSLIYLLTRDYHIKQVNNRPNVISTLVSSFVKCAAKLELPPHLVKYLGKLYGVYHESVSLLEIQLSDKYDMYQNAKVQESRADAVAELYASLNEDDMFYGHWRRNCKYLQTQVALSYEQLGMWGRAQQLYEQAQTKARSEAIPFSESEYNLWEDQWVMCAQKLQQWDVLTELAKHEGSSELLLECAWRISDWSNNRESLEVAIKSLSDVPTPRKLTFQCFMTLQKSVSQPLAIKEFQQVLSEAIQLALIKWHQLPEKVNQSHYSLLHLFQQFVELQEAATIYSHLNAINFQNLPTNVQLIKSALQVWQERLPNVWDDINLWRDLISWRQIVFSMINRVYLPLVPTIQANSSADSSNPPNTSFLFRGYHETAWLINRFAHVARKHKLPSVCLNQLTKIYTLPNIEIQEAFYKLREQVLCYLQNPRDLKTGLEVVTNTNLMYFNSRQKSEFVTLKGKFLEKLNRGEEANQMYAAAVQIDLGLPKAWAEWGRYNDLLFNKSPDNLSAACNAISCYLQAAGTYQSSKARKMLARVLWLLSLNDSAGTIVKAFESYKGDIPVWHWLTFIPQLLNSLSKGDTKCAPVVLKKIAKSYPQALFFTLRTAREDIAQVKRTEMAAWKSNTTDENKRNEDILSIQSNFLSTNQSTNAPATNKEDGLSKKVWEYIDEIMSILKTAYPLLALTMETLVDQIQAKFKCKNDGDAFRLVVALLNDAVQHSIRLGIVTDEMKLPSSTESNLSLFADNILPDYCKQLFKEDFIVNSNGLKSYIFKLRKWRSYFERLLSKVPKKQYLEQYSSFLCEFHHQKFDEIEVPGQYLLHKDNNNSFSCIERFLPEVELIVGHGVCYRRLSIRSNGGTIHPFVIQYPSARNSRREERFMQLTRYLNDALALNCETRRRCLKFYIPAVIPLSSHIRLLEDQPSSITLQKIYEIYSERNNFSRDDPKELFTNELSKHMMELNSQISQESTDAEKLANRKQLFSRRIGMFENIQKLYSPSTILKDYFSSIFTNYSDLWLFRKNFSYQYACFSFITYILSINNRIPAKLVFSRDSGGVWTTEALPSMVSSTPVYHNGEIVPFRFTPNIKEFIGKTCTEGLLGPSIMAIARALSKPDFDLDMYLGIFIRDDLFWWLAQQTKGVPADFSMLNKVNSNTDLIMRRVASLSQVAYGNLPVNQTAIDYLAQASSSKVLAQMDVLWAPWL
# B1: TTI2 (S. pombe) (protein, UniProt O94729 1-467)
# chain: MQYYKELARRLHTLQSKNEKEALEKQIDFLDKLVVEVDSLVHEQDLRPLLEFISPTESWFLLGTATIFYIKLLTHPDPESIDVVIKEAYVVRAHRILSIFQEQFIENVVKEINWEILAILISLSGIENGLVRNLSEFLSTSILSAVPRQKFLLYLLEKYQINLFHREERLTDQGRPVAFELPPDKFHSDQSKALLEPKWKTKNYLISHLIFWIIDQQSSSSIEVCWHRIIPSVLRILNDLSPNIKLQGIELVNRLLKITEREFLLYTGILKILKDDLLVFYTFIPPRFTIQTSVTLINASFATLVSLYPEENENLNSIMLNGINSVFQFAFDYPLILQAAFSQIMVLTDKMNVSYLPYLTLTLDELCRIIQNPQIIQIPSTLSFFLEILTKLLEIYSYRISAHHVELLMALVVCSRNYMRCNLQEHHNAIVQALQNLFTLIKLNITVEQLGDYNVILPLLEPLQIPL
# B2: TEL2 (S. pombe) (protein, UniProt Q9P3W5 1-868)
# chain: MKSFASELSKPIQKPRLKEILKELQHIGVPSPCNLRLYHELISVIVPTFWNGKINSEIDFLLAKCFSTLLGLKLLCVRLDNFVQEANLQNIHLVTVYLELLEKAFECIDLDDNCKLIWESTVLSDHQKQSLWTEFIFFLGNFKITNSMSAAMLTFKVYDDSKRLKASSMADYIGVLSSKLACIISKPAVKTPEIYSKLFHYLLHSSNLKAFINPLIPLTQKFCVQLQKLFADLTVSDQMLFLNQLLLEHNTKYPTNFSYSTARDDRITGSLATLLRLNFSSTHFLRLIEFYWGVPTNLIIKRVEVVCSSISYKESDKKELEKTVDSLFNIWSNAQFLRSYTLLAQESLTIYLLLFIPKLEAKYLNNLSKSLMFSNAISCRLDSLDDDIRMHGMIMAEVISTYSGVSLSNPLAFDVPIMKTTKAKVLKSLSSLKDEFLPIEILNDESVIAETSIEKEETNVTHLEKPVISKNDDLIRGDDLEPYDFPDIDSEDTDDDPTVSRSKTHSPVYVQDLCKMLKDTESFEKQRVALENASKLIKRKSAFGTELRDHADELLQTLISLQNRFDLMNFDEMQMTAIVELLLTCLDICGPVICTNLFVSDYSMRQKILILSCISLAASKFNDDDNERLFPSQLLPGNLHDQFYSPTIEKISDELERKLVFPVMSECKDYAEGPKFLQTRYISKQSEIESKKPLPKANRLSLKVDKSLFLLLTSGYMLASRKTAFIEPLFLVYYLKTLGILFFETFTSKIEGANRMLREYVDVLNEVCRLRSDTPEVNEGLLFSFLAILEISSGRTLANEFGKHLLFFEAYTKFLFESPDQGEKVKSLSAAVLILFENKLSEFRTLALEKLLDDSAPLVPERFGLAGL
# B3: TTI1 (S. pombe) (protein, UniProt O94600 1-1098)
# chain: MSHIQSIFAQIRDPFRKLSFYSLPLSSETSSVDSNGLKNSLKDAYFGLEKALTNTDADLPLNLCDYIFFPIVPVLKSWYRVPSTGVEYAIQCVNLLYKHGWREAHNEMLTMQLLLMLLNIADGWKSPSETVEQDFRVREITFETLENVITDFKPNFHDKRQYLLFARALSSALDIIPNKNSSRRLQFASLCCVQKLICPKQYRLPTEFLTTFLPGIVSGLTKGLAPNGTCQYFKNVCISLNILGDTVVKAISDDNTKDLPDEKDASSNSHFFGPTKRTKSWKRATCQQLSNAVKAILHLRSSQNLHVQDALFDFCFILFRDCLDSLKDCRIHLLESMLKLINKKENPKLRDYGMNKLVSLIESFNNITMESVLTECLNDWSTTWSSVSTFASEDNKLEELNRLKSLLSISSHLPKTLQLMEPLLDGILSQLVPKSSGIDSNSQKLLTSSTSNEYIHGEFFGGNEMERTTQEIVTSFAKAPNVKYVMQSLLSKATSATNENSVRAFWAFMVLLKSDVETVDSLEMYIDSLEQYSFEVLQQLSQLNVFTKASLEDKQKKEKYNLLCVRSCIAIDSISWISSLQGVKFRSKLMAYFYPLLEHLAFASPYVSSFAEACIQAIATNCNYSTPAELLRENIDYVVNSVALKLNTLDVSPQLPIVMAYVIKNDDGGCIRYIGDVVDAIFGILDAYHGYARLTEGLLGILYAIIKQESINGEEKKLIVGVEEDAMNEDKNKPCKKIREFVQLLLENPNYPLPKDDHELEDMIHDEQQETKSGHEQFREHAMKEKEKKGKENENMGETTVDHENINSNVMDEQGEKQKDDVVDMVRKITEKAQLFLSHEQITIRVEMLKLLSYGSNVLAKEPNTFYPAINTFWPLVVIQLDTDNELLVECALETIYQVCALADDFMTSRIRQDLLPRLETLCQRWHLFNVARTYSSEHRLQRAMLKVTSACVANKLSIVVYLKLMGITAPIIRAITHMSQKYAGDESLVEETWNAFSKQNPDAVYYEREVRGSQMIDTFSTELLIPGKQRVQRTYRRTHEVLEPVGAKTSETVFNDLLGQQGSGKTETQEEPLPSLDNLLHLNQPKKGAKKPLISII
# Molecular target: Tra1 (S. pombe) (S. pombe) (UniProt Q9HFE8)
# Assay: affinity purification with mass spectrometry; TAP of baits TAP-tagged at their genes from S. pombe extracts; eluates on 6-18% gels, Coomassie, bands and slices identified by MALDI peptide mapping and LC-MS/MS; common background removed, A-index cut-off 1.75
row,binding,Binder
1,binds,B1
2,binds,B2
3,binds,B3

# Results are given in words; binding and its absence hold for the method and conditions named. Binding seen in cells or lysates may run through a third protein. Here binding means that the protein was enriched with, or labelled near, the bait; the list need not be complete.
